At least one compound was matched to its structure with a doubt left.
Tests used:
Assay type in all cases: cell-based
p38α = test: Immunoblotting with anti-phospho-pan p38 antibody in P19 cells; settings: P19 cells after retinoic acid treatment
MEF2C and MEF2D proteins = test: Immunoblotting of MEF2C and MEF2D protein in P19 cells; settings: P19 cells after retinoic acid treatment, immunoblot
P19 cells = test: Apoptosis assays (Hoechst 33342 nuclear morphology, TUNEL) during neuronal differentiation of P19 clones; settings: control P19 clones, three days of retinoic acid
MEF2 binding site = test: Gel shift assay of MEF2 binding activity in nuclear extracts of P19 cells; settings: two days after retinoic acid treatment vs undifferentiated

CC1=C(/C=C/C(C)=C/C=C/C(C)=C/C(=O)O)C(C)(C)CCC1 [retinoic acid, 13-cis retinoic acid] was tested. Which “activated/phosphorylated p38 band (mobility of p38α)” value (p38α) did it give?
The value was “strongly induced”.

What about the “level of MEF2C and MEF2D proteins” value (MEF2C and MEF2D proteins) of the same compound?
The value was “increased”.

What about the “cells with apoptotic nuclei” value (P19 cells) of the same compound?
Its value is “a significant number of cells displayed apoptotic nuclei”.

And the MEF2 binding activity (MEF2 binding site)?
The MEF2 binding activity was “increased to high levels”.

— patent publication US8236563B2, “Methods of differentiating and protecting cells by modulating the p38/MEF2 pathway” (Sanford-Burnham Medical Research Institute, priority 2000, dated 2012)
